# Laboratory results: PubChem BioAssay AID1487 (National Center for Advancing Translational Sciences (NCATS), 2009)
# About 25 (0.01%) of roughly 200,000 compounds were called active. This list was built around the results that the source calls inconclusive (neither active nor inactive); the mix of calls is not that of the screen. Calls follow the shape of the dose curve; as a rule, active = well fitted inhibition curve with a large enough effect in the signal ratio, with a control signal flat (not every such curve was filed as active); inconclusive = small, poorly fitted or top-dose-only effect, or effect the other way, or a change in a side signal; inactive = flat fitted curve, though single readings scatter; the % refers to the signal ratio. Potencies beside an inconclusive call are fits to weak or partial responses and may not hold up.
# Experiment: qHTS Assay for Modulators of Lamin A Splicing
# Conditions: HeLa LMNA splicing GFP/RFP minigene ratio, 48 h; ratio change, negative = inhibition: at 46.1 µM (top of the series) unless noted
# Method in brief: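 S3 HeLa stable clones carrying a lamin A-EGFP splicing minigene plus DsRed2 were seeded at 600 cells/well in Opti-MEM with 2% FBS, pin-dosed and incubated 48 h at 37°C. Acumen cytometry (488 nm) gave the GFP/RFP total-intensity ratio.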
# % is scaled to controls: 0 for no effect and ±100 for the full control effect; potency is read from the fitted curve at half-maximal effect.
Compound,Potency,"ratio change, negative = inhibition"
COc1ccc(CC(=O)Nc2ccc3nc(Nc4cccc(Cl)c4)cc(C)c3c2)cc1,"inconclusive: 35.5 µM [falling, partial curve, poor fit]",
Cc1ccc(/C=N\NC(=O)Cc2cccn2C)o1,,inconclusive: 19% [at 9.22 µM]
Brc1ccc(CSc2ccc3nnc(-c4cccnc4)n3n2)cc1,,inconclusive: -17.8% [at 46 µM]
Cc1nc2ccccn2c1C(=O)NN=C1CCCC1,,inconclusive: -2.3% [at 46 µM]
COc1ccc(OC)c(NC(=O)c2c(NCc3ccc(OC)c(OC)c3)sc3c2CCC(C)C3)c1 (configuration not stated),"inconclusive: 35.5 µM [rising, single point]",
CC(=O)Nc1ccc(-c2cc(-c3ccc(NC(C)=O)cc3)nc(-c3ccccc3)n2)cc1,,inactive: 5.12%
O=C(O)CNC(=O)C12CC3CC(CC(Cl)(C3)C1)C2,,inconclusive: -33.6% [at 46 µM]
NS(=O)(=O)c1ccc(NC(=O)COC(=O)COc2ccc(Cl)cc2)cc1,,inconclusive: 10.7% [at 46 µM]
COc1ccc(-n2c(C)nc3c(cnn3-c3ccccc3)c2=O)cc1,"inconclusive: 11.2 µM [falling, single point]",
Cc1cccc(C)c1NC(=O)C1CCCN1S(=O)(=O)c1ccccc1 (configuration not stated),,inactive: -22.2% [at 46 µM]
O=c1c2c(n3cnnc3n1-c1ccccc1)-c1ccccc1CC21CCCCC1,,inactive: 6.59%
CN(C)c1ccc(CNC(=O)Cc2ccc(NC(=O)N3CCCCc4ccccc43)cc2)cc1,,inconclusive: -16.3% [at 46 µM]
COc1cc2cc(CN(CCc3cccc(C)c3)C(=S)NCCCN3CCOCC3)c(=O)[nH]c2cc1OC,"inconclusive: 20 µM [inhibitor, single point]",
COc1ccc(Cc2nc(-c3cccc(C)c3)no2)cc1,,inconclusive: -8.06%
COc1ccccc1Oc1ccc2c(c1)C(=O)N(c1ccc(C)cc1)C2=O,,inconclusive: 33.7%
O=C(Nc1cccc(Cl)c1)N1CCN(Cc2ccccc2)CC1,,inactive: -4.23%
CCOc1ccc(C(=O)Nc2cccc(C(=O)OCc3cc(=O)n4cc(C)sc4n3)c2)cc1,,inactive: -2.74% [at 46 µM]
CCc1ccc(-c2ccc(SCc3ccccn3)nn2)cc1,,inconclusive: 12.4% [at 9.22 µM]
COc1ccc(Br)cc1CNC(=O)c1cc(=O)[nH]c2ccc(S(=O)(=O)N3CCCCC3C)cc12 (configuration not stated),,inconclusive: -22.9% [at 46 µM]
COc1ccc(N2C(=O)CS(=O)(=O)C23C(=O)N(Cc2ccccc2F)c2ccccc23)cc1Cl (configuration not stated),,inactive: 2.58% [at 46 µM]
O=C(CN1C(=O)S/C(=C/c2cc(Br)cs2)C1=O)N1CCOCC1,,inactive: -9.4%

Compound,Potency,"ratio change, negative = inhibition"
COc1ccc2nc(NC(=O)CSc3ccccc3)sc2c1,,inconclusive: 17.4%
CCOC(=O)c1cc2c(C)n(-c3ccc(C)cc3)c(C)c2ccc1=O,,inconclusive: 35.4%
O=C(NCCCn1ccnc1)C(=O)NC1CCCCC1,,inconclusive: 43.6% [at 46 µM]
Cc1cc(C)cc(NC(=O)Cc2csc(COc3cccc(C)c3)n2)c1,,inconclusive: 29.1% [at 46 µM]
CCOC(=O)C1CN(C(C)(C)C)C(=O)C1=O (configuration not stated),,inconclusive: 4.14%
O=C(Nc1nc(-c2ccccn2)cs1)c1ncc(Cl)c(Cl)c1Cl,"inconclusive: 35.5 µM [cytotoxic, single point]",
Cc1ccc(-c2cc(C(F)F)n3ncc(C(=O)N4CCc5ccccc54)c3n2)cc1,,inconclusive: -2.09% [at 46 µM]
CCCCOc1cccc(C(=O)NC(=S)Nc2cccc(NC(=O)c3ccccc3Cl)c2)c1,,inactive: -9.88%
CCN(CC)S(=O)(=O)c1cccc(-c2nnc(SCCCC(=O)c3ccccc3)o2)c1,"inconclusive: 12.6 µM [fluorescent, single point]",
CCN1CCCC1CNC(=O)c1ccc(Sc2ccc(F)cc2)c([N+](=O)[O-])c1 (configuration not stated),,inconclusive: -28.8% [at 46 µM]
OCCOCCOc1cccc2[nH]ccc12,,inactive: -24.9% [at 46 µM]
Cn1c(=O)c2c(nc(N3CCCCCC3)n2CC(=O)c2ccc(Br)cc2)n(C)c1=O,,inconclusive: 30.6%
Cc1ccc(NC(=O)Nc2nnc(SCC(=O)N(C(C)C)C(C)C)s2)cc1,,inconclusive: -33.1% [at 46 µM]
O=S(=O)(NC1CCN(Cc2ccccc2)CC1)c1ccc2ccccc2c1,,inactive: -16.1% [at 46 µM]
Cc1nnsc1C(=O)NNS(=O)(=O)c1ccccc1,,inactive: 19.1%
CSc1ncc(C(=O)Nc2cc(C)cc(C)c2)c(-c2ccccc2)n1,,inconclusive: -1.19% [at 46 µM]
Cn1/c(=N/N=C/c2ccccn2)sc2ccccc21,,inconclusive: -6% [at 46 µM]
O=C(CSCc1ccccc1)N1CCN(c2ccccc2)CC1,,inconclusive: 8.87%
COc1ccc2[nH]c3c(=O)n4c(nc3c2c1)SCCC4,,inconclusive: -17.6% [at 46 µM]
CC(=O)N1CCC2(CC1)C(C#N)=C(N)Oc1n[nH]c(CSc3ccc(C)cc3)c12,,inactive: -6.58%
CCCc1nnc(-c2cc(OC)c(OC)c(OC)c2)o1,,inactive: 3.86%

Compound,Potency,"ratio change, negative = inhibition"
CC1(C)SC(=S)N(/N=C/c2ccccc2)C1N(O)C(=O)Nc1ccc([N+](=O)[O-])cc1 (configuration not stated),"inconclusive: 25.1 µM [inhibitor, single point]",
COc1ccc2[nH]c(=O)c(CN(C3CCCCC3)C(c3nnnn3Cc3ccco3)C(C)C)cc2c1 (configuration not stated),,inconclusive: -22.6%
Cc1ccc(NC(=O)CN2CCC(Cc3ccccc3)CC2)cc1S(=O)(=O)N(C)C,,inconclusive: -46.5% [at 46 µM]
Cc1cccc2sc(NNC(=O)C3COc4ccccc4O3)nc12 (configuration not stated),,inconclusive: -38.9%
C/C(=N\OCC(=O)Nn1c(C)nc2ccccc2c1=O)c1ccccc1,,inconclusive: 5.27%
Cc1ccccc1N=C1NC(=O)CC(c2ccccc2)S1 (configuration not stated),,inactive: -11.4%
CCN1C(=O)c2cccc3c(NC(=O)c4ccccc4)ccc1c23,,inactive: -7.59%
Cc1ccc(NC(=O)CN2C(=O)N/C(=C\c3cccnc3)C2=O)cc1,,inconclusive: -12.8% [at 9.22 µM]
COC(=O)C(N)Cc1ccc(Cl)cc1 (configuration not stated),,inconclusive: -5%
N#Cc1ccc(NC(=O)COCc2cc(-c3ccc4c(c3)OCO4)on2)cc1,,inactive: -0.805% [at 46 µM]
Cc1ccc2nc(SC(C)C(=O)NCc3ccc4c(c3)OCO4)[nH]c2c1 (configuration not stated),,inactive: -10%
Cc1nc2ccn(Cc3cccnc3)c(=O)c2cc1C(=O)NCc1ccc(Cl)cc1,,inconclusive: -10.2% [at 46 µM]
N/C(=N\OC(=O)COc1ccccc1)c1cccnc1,,inactive: -9.54%
COc1ccc(C(=O)Nc2ccc3c(c2)N(C2CCCC2)C(=O)c2ccccc2S3)cc1OC,"inconclusive: 4.47 µM [falling, full curve]",
Cc1ccc2onc(CC(=O)Nc3cc(F)ccc3F)c2c1,,inactive: 19% [at 46 µM]
Cc1ccccc1CNC(=O)CCCn1c(=O)c2cccn2c2ccccc21,,inconclusive: 10.7% [at 46 µM]
C/C(=N\Nc1nc(N)cc(Cl)n1)c1cccc(N)c1,,inconclusive: -10.9%
Cn1cccc1C(C(=O)NC1CCCCC1)N(C(=O)Cc1cccs1)C1CC1 (configuration not stated),,inactive: -4.26%
O=C(NNC(=S)Nc1ccc(Cl)cc1Cl)C1CC1,,inactive: -9.91%
COc1ccc(OC)c(NC(=O)c2c(NCc3ccc(C)o3)sc3c2CCCCC3)c1,,inconclusive: -36.7% [at 46 µM]
CC(NC(=O)COC(=O)Cc1ccsc1)c1ccccc1 (configuration not stated),,inconclusive: 7.55%

Compound,Potency,"ratio change, negative = inhibition"
O=C(NCC1CCN(Cc2cccc(F)c2)CC1)c1cc2ccc3cccnc3c2[nH]1,,inactive: -9.26% [at 46 µM]
Cc1ccc(Cl)cc1N1CCN(C(=O)c2sc3nc4n(c(=O)c3c2C)CCC4)CC1,,inactive: 14.2% [at 46 µM]
CCOC(=O)c1sc(/N=C/c2ccc(O)cc2O)cc1C,,inactive: -16.7%
CC1(C)Cc2cccc(OCC(=O)Nc3ccccc3N3CCOCC3)c2O1,,inconclusive: -13.8%
COc1ccc(C2C(C(=O)OC3CCCCC3)=C(C)Nc3nnnn32)c(OC)c1OC (configuration not stated),,inconclusive: 7.93%
COc1cccc(/C=N/n2c(C)nc3ccccc3c2=O)c1O,"inconclusive: 35.5 µM [falling, single point]",
COc1ccccc1N1CCN(c2ncc3c(n2)CCN(Cc2ccc(C)s2)C3)CC1,,inconclusive: -23.2% [at 46 µM]
N=c1c2c(n(Cc3ccc(Br)cc3)c3c1CCC3)CCCC2,"inconclusive: 2.82 µM [fluorescent, full curve]",
Cc1ccc(C(=O)Nc2nnc(-c3ccco3)o2)cc1,"inconclusive: 35.5 µM [falling, single point]",
CCCCCOc1ccc(OC(=O)c2ccncc2)cc1,"inconclusive: 12.6 µM [inhibitor, partial curve]",
Cn1c(SCC(=O)N/N=C/c2ccco2)nc2ccccc21,,inconclusive: 7.28% [at 46 µM]
Cc1ccc(NC(=O)CN(C)C(=O)COc2ccc(C(=O)c3ccc(F)cc3)cc2)cc1,"inconclusive: 35.5 µM [fluorescent, single point]",
Nc1nc2nc(-c3cccs3)cc(C(F)(F)F)n2n1,"inconclusive: 3.16 µM [inhibitor, full curve, poor fit]",
Cc1onc(-c2ccccc2Cl)c1C(N)=O,,inactive: 8.15%
NC(N)=N/N=C/c1ccccc1OC(F)F,,inactive: -14.1% [at 9.22 µM]
C/C=C(/C)C(=O)O[C@@H]1c2c(ccc3ccc(=O)oc23)O[C@@H]1C(C)(C)OC(=O)/C(C)=C\C,,inconclusive: -43.3%
CNC(=O)c1cc2cccc(OC)c2oc1=O,,inactive: 10%
CCC(C(=O)Nc1cc(-c2cn3cccnc3n2)ccc1C)c1ccccc1 (configuration not stated),,inconclusive: 20.2% [at 46 µM]
CC(=O)OCC(=O)[C@@]1(O)CCC2C3C[C@H](C)C4=CC(=O)C=CC4(C)C3C(O)CC21C (some centres not stated),,inconclusive: 14.9%

# Random excerpt: 4 entries already listed.
Compound,Potency,"ratio change, negative = inhibition"
Nc1nc2nc(-c3cccs3)cc(C(F)(F)F)n2n1,"inconclusive: 3.16 µM [inhibitor, full curve, poor fit]",
CCCCCOc1ccc(OC(=O)c2ccncc2)cc1,"inconclusive: 12.6 µM [inhibitor, partial curve]",
Cn1c(SCC(=O)N/N=C/c2ccco2)nc2ccccc21,,inconclusive: 7.28% [at 46 µM]
COc1ccccc1N1CCN(c2ncc3c(n2)CCN(Cc2ccc(C)s2)C3)CC1,,inconclusive: -23.2% [at 46 µM]
